Hit rate of the full screen: of about 220,000 compounds, about 2,400 (1.1%) were called active. This list was built around the results that the source calls inconclusive (neither active nor inactive); the mix of calls is not that of the screen. Calls come from the whole dose curve; as a rule, active = well fitted inhibition curve with a large enough effect; inconclusive = small, poorly fitted or top-dose-only effect, or effect the other way; inactive = no such curve, though single readings can be large or run the other way. Potencies beside an inconclusive call are fits to weak or partial responses and may not hold up.
Assay: qHTS Multiplex Assay to Identify Dual Action Probes in a Cell Model of Huntington: Aggregate Formation (GFP); note: nearly all actives have a fitted effect of over 60% in size
Details: PC12 HttQ103-GFP aggregates, Acumen cytometry, 40 h; activity change, negative = inhibition: at 46.1 µM (top of the series) unless noted
Outline: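 Using laser scanning cytometry, GFP-positive aggregates were counted after lysis of PC12 cells induced with 100 nM tebufenozide to express HTT exon 1 Q103–GFP. Compounds were tested in titration.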
With `CC(=O)Nc1ccccc1Nc1cc(C#N)c(C#N)cc1[N+](=O)[O-]` the Potency was inconclusive: 35.5 µM [inhibitor, single point].
For `O=C(Nc1cccnc1)Nc1ccc(F)c(Cl)c1`, the Potency was inconclusive: 15.8 µM [inhibitor, single point].
For `O=C(Nc1nc(-c2ccccc2)cs1)C1CCCN(S(=O)(=O)c2ccccc2)C1` (centres undefined), the Potency was inconclusive: 35.5 µM [inhibitor, single point].
For `CSc1nc2ccc(NS(=O)(=O)c3ccc(Cl)s3)cc2s1`, the Potency was inconclusive: 12.6 µM [inhibitor, single point].
In the case of `CCOC(=O)Cc1csc(NC(=O)c2c(O)c3ccccc3n(CC(C)C)c2=O)n1`, the Potency was inconclusive: 22.4 µM [inhibitor, single point].
With `CCOc1cc([C@@H]2C[C@H]3CN(c4ccccc4)C(=O)[C@]34CCCN24)ccc1OC` the Potency was active: 7.08 µM.
In the case of `COc1ccc(-c2cc(C(F)(F)F)n3ncc(C(=O)N(C)Cc4ccccc4)c3n2)cc1`, the Potency was inconclusive: 35.5 µM [inhibitor, single point].
In the case of `CCc1ccccc1OCc1nc2ccc(S(=O)(=O)N3CCOCC3)cc2[nH]1`, the Potency was inconclusive: 0.891 µM [inhibitor, full curve].
With `Cc1ccc2c(c1)Sc1ccccc1CC2=O` the Potency was inconclusive: 5.62 µM [inhibitor, single point].
With `Cc1ccc(NC2=C([N+](=O)[O-])CS(=O)(=O)C2)cc1` the Potency was inconclusive: 25.1 µM [activator, single point].
With `COc1ccc(-c2nn(CC(=O)NCCc3ccccc3)c(=S)n2C)cc1` the Potency was inconclusive: 35.5 µM [inhibitor, single point].
With `CCOC(=O)N1CCC(NC(=O)CSc2cc(=O)n(CC)c3ccccc23)CC1` the Potency was inconclusive: 25.1 µM [activator, partial curve].
In the case of `Cn1nc(-c2ccc(N3CCCCC3)c(NC(=O)c3ccco3)c2)c2ccccc2c1=O`, the Potency was inconclusive: 2.82 µM [activator, single point].
In the case of `COC(=O)CC1Sc2ccccc2NC1=O` (centres undefined), the Potency was inconclusive: 1.26 µM [inhibitor, single point].
For `O=C(CN1CCc2ccccc2C1)Nc1cc(S(=O)(=O)N2CCOCC2)ccc1N1CCOCC1`, the Potency was inconclusive: 0.562 µM [inhibitor, full curve, poor fit].
For `O=C1C=C(Nc2ccccc2C(=O)O)c2ccccc2C1=O`, the activity change, negative = inhibition was inactive: -11.9% [at 9.22 µM].
For `COc1ccc(C(C)=O)cc1COC(=O)CCCN1C(=O)c2ccccc2C1=O`, the “activity change, negative = inhibition” value was inactive: 6.07%.
In the case of `CNC(=S)N/N=C(\C)c1ccc2c(c1)OCO2`, the “activity change, negative = inhibition” value was inactive: -15.6%.
In the case of `Cc1ccccc1Cn1c(=N)n(CC(=O)c2ccco2)c2ccccc21`, the Potency was inconclusive: 35.5 µM [inhibitor, single point].
In the case of `CCOc1ccc(C(=O)N/N=C/c2cc(Cl)ccc2[N+](=O)[O-])cc1`, the “activity change, negative = inhibition” value was inactive: 16.5%.
With `COc1ccc(Nc2nc(-c3ccc4c(c3)NC(=O)CO4)cs2)cc1` the Potency was inconclusive: 14.1 µM [inhibitor, single point].
In the case of `O=C(NC(NC(=S)Nc1cc(Cl)ccc1Cl)C(Cl)(Cl)Cl)c1ccco1` (centres undefined), the Potency was inconclusive: 35.5 µM [inhibitor, single point].
For `NC(=O)c1cc(-c2ccccc2)nc(N2CCOCC2)n1`, the Potency was inconclusive: 22.4 µM [inhibitor, single point].
For `O=[n+]1cc(-c2cc3ccccc3o2)n([O-])c2c1CCCC2`, the Potency was inconclusive: 12.6 µM [inhibitor, single point].
With `CCCCCCCCCCCCCC[n+]1ccc(C)cc1` the Potency was active: 22.4 µM.
For `COc1ccc(S(=O)(=O)N(C)CC(=O)Nc2ccc3c(c2)OCCO3)cc1OC`, the Potency was inconclusive: 2.82 µM [activator, partial curve].
With `Cc1[nH]c2ccccc2c1C(=O)COC(=O)c1c(-c2ccccc2)noc1C` the Potency was inconclusive: 5.62 µM [activator, single point].
In the case of `COc1ccccc1NC1=C(Cl)C(=O)N(c2ccccc2)C1=O`, the “activity change, negative = inhibition” value was inactive: 12.7%.
In the case of `COc1cc(-c2nnc(COc3ccc4cc(Br)ccc4c3)o2)cc(OC)c1OC`, the “activity change, negative = inhibition” value was inactive: -15.8%.
With `CC1(O)CC(=O)N(c2ccccc2)O1` (centres undefined) the “activity change, negative = inhibition” value was inactive: 15.6%.
In the case of `C/C(=N\Nc1nc(C)cc(C)n1)c1ccc(N2CCOCC2)cc1`, the Potency was active: 11.2 µM.
In the case of `CCCCNC(=O)c1onc(CSc2ccccc2CC)c1C(=O)O`, the Potency was inconclusive: 35.5 µM [inhibitor, single point].
With `CCCC1=NN(c2ccc([N+](=O)[O-])cc2)C(=O)/C1=C/N(C)C` the Potency was inconclusive: 35.5 µM [inhibitor, single point].
For `CCOc1cc(/C=C/c2ccc3cccc([N+](=O)[O-])c3n2)ccc1O`, the “activity change, negative = inhibition” value was inactive: 14.3%.
With `COc1cc(NC(=O)Nc2cccc(Cl)c2)c(OC)cc1NC(=O)CN1CCCCC1` the Potency was inconclusive: 35.5 µM [inhibitor, single point].
With `COc1ccc(N2CCN(C(=O)CSc3nnc(-c4cc5ccccc5cc4O)n3C)CC2)cc1` the Potency was active: 12.6 µM.
In the case of `CN(C)S(=O)(=O)c1cccc(NC(=O)c2cncc(Br)c2)c1`, the Potency was inconclusive: 0.0891 µM [inhibitor, partial curve, poor fit].
With `O=C(CSc1nccn1-c1ccccc1)Nc1ccc2c(c1)OCO2` the “activity change, negative = inhibition” value was inactive: 1.1%.
In the case of `O=C(Nc1ccccc1)c1cc2ccccc2c(=O)s1`, the Potency was active: 11.2 µM.
For `O=S(=O)(CCN1CCN(C(c2ccccc2)c2ccccc2)CC1)C(F)(F)F`, the Potency was inconclusive: 12.6 µM [inhibitor, single point].
With `CC1CN(C(=O)Nc2ccc(Br)cc2Cl)CC(C)O1` (centres undefined) the Potency was inconclusive: 15.8 µM [activator, single point].
In the case of `Cc1ccc(CSC(Nc2ccc(F)cc2)=C(C#N)C#N)cc1`, the Potency was active: 6.31 µM.
With `COc1cccc(Nc2nc3ccc(OC)cc3s2)c1` the Potency was inconclusive: 5.62 µM [inhibitor, single point].
With `Cc1ccc(/C=C/C(=O)NCc2cccs2)o1` the Potency was inconclusive: 31.6 µM [inhibitor, single point].
For `C/C(Cn1nnc([N+](=O)[O-])n1)=N\NC(=O)c1ccccc1`, the Potency was inconclusive: 11.2 µM [inhibitor, partial curve].
For `O=C(c1cccc(F)c1)N1CCN(C2CCCCC2)CC1`, the Potency was inconclusive: 2.51 µM [inhibitor, single point].
For `COc1ccc(S(=O)(=O)N(CC(=O)N2CCN(c3ccccc3OC)CC2)c2ccccc2)cc1`, the Potency was inconclusive: 35.5 µM [inhibitor, single point].
With `O=C(O)CC1(CC(=O)NCc2csc(-c3cccs3)n2)CCCCC1` the activity change, negative = inhibition was inactive: 1.57% [at 9.22 µM].
In the case of `Cc1cccc(NS(=O)(=O)c2ccc3c(c2)OCCO3)c1`, the Potency was inconclusive: 15.8 µM [inhibitor, partial curve].
For `CCc1ccc(CN(C)C(=O)CCc2nc3ccccc3n(-c3ccc(OC)cc3)c2=O)cc1`, the Potency was inconclusive: 12.6 µM [inhibitor, single point].
For `CCN1C/C(=C/c2ccc(OC)c(O)c2)C(=O)/C(=C/c2ccc(OC)c(O)c2)C1`, the Potency was inconclusive: 25.1 µM [inhibitor, single point].
For `CCN1CCN(Cc2ccc(NC(=O)c3ccc(C)c(NC(=O)C(=O)c4c[nH]c5ccccc45)c3)cc2C(F)(F)F)CC1`, the Potency was inconclusive: 6.31 µM [inhibitor, partial curve].
In the case of `COc1ccc(C)cc1NC(=O)C1COc2ccccc2O1` (centres undefined), the “activity change, negative = inhibition” value was inactive: 9.44%.
In the case of `Cc1cc([N+](=O)[O-])ccc1-c1ccc(C2Nc3ccccc3C(=O)N2O)o1` (centres undefined), the Potency was inconclusive: 11.2 µM [inhibitor, partial curve].
With `COc1ccc(C(=O)CSc2[nH]c(=O)cc(C(F)(F)F)c2C#N)cc1` the activity change, negative = inhibition was inactive: -27.1% [at 9.22 µM].
In the case of `CCOC(=O)N1CCN(c2nc(-c3ccc(OC)cc3)no2)CC1`, the Potency was inconclusive: 25.1 µM [inhibitor, single point].
With `CCn1c(NCc2ccccc2Cl)nc2ccccc21` the Potency was inconclusive: 35.5 µM [inhibitor, single point].
With `COc1ccc(C2CC(c3ccccc3)=NN2C(=O)c2cccs2)cc1` (centres undefined) the Potency was inconclusive: 35.5 µM [inhibitor, single point].
In the case of `COc1ccc(OC)c(C(=O)CSc2nc3cccnc3n2C)c1`, the “activity change, negative = inhibition” value was inactive: 1.99%.
With `O=C(CN(Cc1ccccc1)C(=O)c1cc2c(s1)CCC2)NCc1cccs1` the “activity change, negative = inhibition” value was inactive: 12.2%.
With `Cc1ccccc1CCN(C(=O)CN1C(=O)c2ccccc2S1(=O)=O)C(C(=O)NCC1CCCO1)c1ccncc1` (centres undefined) the Potency was active: 15.8 µM.
For `CN1CCN(c2oc(COc3ccc(-c4ccccc4)cc3)nc2C#N)CC1`, the Potency was inconclusive: 0.0891 µM [inhibitor, full curve, poor fit].
With `Fc1cccc(Cl)c1CNC(c1ccccc1)c1ccccc1` the Potency was inconclusive: 35.5 µM [inhibitor, single point].
In the case of `COc1ccccc1NC1=NC(C)(C)N=C(N)N1`, the Potency was inconclusive: 11.2 µM [activator, single point].
In the case of `COc1ccc(NC(=S)NC(=O)/C=C/c2cccs2)cc1`, the Potency was inconclusive: 2.24 µM [activator, single point].
For `CN(C)CCCNC(=O)c1ccc(=O)[nH]n1`, the activity change, negative = inhibition was inactive: 18.1% [at 9.22 µM].
With `Cc1cccc(OCc2nc(C#N)c(NCc3ccc4c(c3)OCO4)o2)c1` the Potency was inconclusive: 10 µM [inhibitor, partial curve].
In the case of `CC[n+]1c(/C=C/C=C/N(C(C)=O)c2ccccc2)sc2cc(OC)ccc21`, the Potency was inconclusive: 35.5 µM [inhibitor, single point].
In the case of `FC(F)Sc1ccc(N=C2NN=C(c3ccc4c(c3)OCCO4)CS2)cc1`, the Potency was inconclusive: 15.8 µM [inhibitor, single point].
% is set by controls: 0 for no effect and ±100 for the full control effect; potency is the fitted concentration of half-maximal effect.
